From the supplement of paper PMC4604168 (melanoma cell lines)
This is one part of the list. Many values rest on one well or one pass, so single values are uncertain.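 Cells were imaged in 1,536-well plates, and nuclei stained with an antibody against cleaved PARP were counted against all DNA-stained nuclei to give the apoptosis fraction. Screening doses were chosen to leave most cells alive, and resting and induced cleaved-PARP levels differ strongly between cell lines.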

Key:
Test in all cases: cleaved PARP positive nuclei fraction relative to DMSO control; melanoma cells; higher = more apoptosis
Details in all cases: library dose: low library concentration; 72 h
[1] = tested on: 501Mel
[2] = tested on: A101D
[3] = tested on: A2058
[4] = tested on: C32
[5] = tested on: CBRC008 (line from a melanoma biopsy)
[6] = tested on: CBRC014 (line from a melanoma biopsy)
[7] = tested on: CBRC016 (line from a melanoma biopsy)
[8] = tested on: CBRC017 (line from a melanoma biopsy)

SMILES | cleaved PARP positive nuclei fraction [1] [%] | cleaved PARP positive nuclei fraction [2] [%] | cleaved PARP positive nuclei fraction [3] [%] | cleaved PARP positive nuclei fraction [4] [%] | cleaved PARP positive nuclei fraction [5] [%] | cleaved PARP positive nuclei fraction [6] [%] | cleaved PARP positive nuclei fraction [7] [%] | cleaved PARP positive nuclei fraction [8] [%]
Cc1cc(Nc2cc(N3CCN(C)CC3)nc(/C=C/c3ccccc3)n2)n[nH]1 + Cc1cc(SCc2sc(-c3ccc(C(F)(F)F)c(F)c3)nc2C)ccc1OCC(=O)O [GW0742] (first compound 0.04 µM, partner dose 2 µM) | 74.4 | 29.1 | 151 | 73.5 | 47.6 | 101 | 88.4 | 96.3
N.N.[Cl][Pt][Cl] [cisplatin] + Cc1cc(SCc2sc(-c3ccc(C(F)(F)F)c(F)c3)nc2C)ccc1OCC(=O)O [GW0742] (first compound 1.6 µM, partner dose 2 µM) | 39.8 | 18.2 | 85.6 | 148 | 176 | 91.7 | 115 | 93.4
COc1cc([C@@H]2c3cc4c(cc3[C@@H](O[C@@H]3O[C@@H]5CO[C@@H](C)O[C@H]5[C@H](O)[C@H]3O)[C@H]3COC(=O)[C@H]23)OCO4)cc(OC)c1O [etoposide] + C/C(O)=C(\C#N)C(=O)Nc1cc(Br)ccc1Br [LFM-A13] (first compound 0.02 µM, partner dose 2 µM) | 55.3 | 22 | 137 | 204 | 95.5 | 108 | 97.2 | 98.1
OCc1c[nH]c2ccccc12 [Indole-3-carbinol] + Cc1cc(SCc2sc(-c3ccc(C(F)(F)F)c(F)c3)nc2C)ccc1OCC(=O)O [GW0742] (first compound 0.8 µM, partner dose 2 µM) | 78.5 | 15.4 | 151 | 71.9 | 202 | 96.6 | 42.1 | 89.5
Nc1ccn([C@@H]2O[C@H](CO)[C@@H](O)C2(F)F)c(=O)n1 [gemcitabine] + C/C(O)=C(\C#N)C(=O)Nc1cc(Br)ccc1Br [LFM-A13] (first compound 0.0004 µM, partner dose 2 µM) | 161 | 52 | 98.8 | 69.7 | 250 | 183 | 189 | 97.9
C[C@@H](N)c1ccc(C(=O)Nc2ccnc3[nH]ccc23)cc1 + O=C(Oc1ccc([N+](=O)[O-])cc1)N1CCC(C(O)(c2ccc3c(c2)OCO3)c2ccc3c(c2)OCO3)CC1 [JZL184] (first compound 0.4 µM, partner dose 1 µM) | 85.9 | 45.4 | 103 | 82.3 | 55.9 | 157 | 71.7 | 174
C[C@@H](N)c1ccc(C(=O)Nc2ccnc3[nH]ccc23)cc1 + Cc1cc(SCc2sc(-c3ccc(C(F)(F)F)c(F)c3)nc2C)ccc1OCC(=O)O [GW0742] (first compound 0.4 µM, partner dose 2 µM) | 218 | 31.5 | 166 | 1650 | 65.2 | 50.7 | 170 | 87.8
OCc1c[nH]c2ccccc12 [Indole-3-carbinol] + O=C(Oc1ccc([N+](=O)[O-])cc1)N1CCC(C(O)(c2ccc3c(c2)OCO3)c2ccc3c(c2)OCO3)CC1 [JZL184] (first compound 0.8 µM, partner dose 1 µM) | 90.5 | 18.2 | 65.7 | 36.2 | 89.2 | 101 | 45.4 | 71.1
Cn1cc(C2=C(c3cn(C4CCN(Cc5ccccn5)CC4)c4ccccc34)C(=O)NC2=O)c2ccccc21 [Enzastaurin] + c1cc(-c2cnn3cc(-c4ccc(OCCN5CCCCC5)cc4)cnc23)ccn1 [Dorsomorphin] (first compound 0.8 µM, partner dose 0.4 µM) | 129 | 10.3 | 109 | 60.1 | 154 | 114 | 39.9 | 85.4
Cn1cc(C2=C(c3cn(C4CCN(Cc5ccccn5)CC4)c4ccccc34)C(=O)NC2=O)c2ccccc21 [Enzastaurin] + C/C(O)=C(\C#N)C(=O)Nc1cc(Br)ccc1Br [LFM-A13] (first compound 0.8 µM, partner dose 2 µM) | 65.6 | 23.5 | 170 | 173 | 47.7 | 104 | 34 | 97.7
N.N.[Cl][Pt][Cl] [cisplatin] + c1cc(-c2cnn3cc(-c4ccc(OCCN5CCCCC5)cc4)cnc23)ccn1 [Dorsomorphin] (first compound 1.6 µM, partner dose 0.4 µM) | 42.9 | 22.4 | 77.2 | 161 | 38.3 | 112 | 79.2 | 115
Clc1ccc(Nc2nnc(Cc3ccncc3)c3ccccc23)cc1 [vatalanib] + C/C(O)=C(\C#N)C(=O)Nc1cc(Br)ccc1Br [LFM-A13] (first compound 2 µM, partner dose 2 µM) | 53.1 | 67.1 | 95.7 | 95.2 | 48.3 | 231 | 98.2 | 102
C=C(c1ccc(C(=O)O)cc1)c1cc2c(cc1C)C(C)(C)CCC2(C)C [Bexarotene] + O=C(Oc1ccc([N+](=O)[O-])cc1)N1CCC(C(O)(c2ccc3c(c2)OCO3)c2ccc3c(c2)OCO3)CC1 [JZL184] (first compound 2 µM, partner dose 1 µM) | 57.4 | 19.6 | 120 | 341 | 419 | 126 | 184 | 127
N.N.[Cl][Pt][Cl] [cisplatin] + O=S(=O)(c1ccccc1)N(CC(F)(F)F)c1ccc(C(O)(C(F)(F)F)C(F)(F)F)cc1 [T0901317] (first compound 1.6 µM, partner dose 1.4 µM) | 64.9 | 19.8 | 21.6 | 50.6 | 57.8 | 122 | 52.4 | 154
CC(=O)O[C@@]12CO[C@@H]1C[C@H](O)[C@@]1(C)C(=O)[C@H](O)C3=C(C)[C@@H](OC(=O)[C@H](O)[C@@H](NC(=O)OC(C)(C)C)c4ccccc4)C[C@@](O)([C@@H](OC(=O)c4ccccc4)[C@H]21)C3(C)C [Docetaxel] + Cc1cc(SCc2sc(-c3ccc(C(F)(F)F)c(F)c3)nc2C)ccc1OCC(=O)O [GW0742] (first compound 0.0001 µM, partner dose 2 µM) | 62.8 | 67.8 | 4310 | 89.6 | 854 | 163 | 128 | 82.1
O=C(/C=C/c1cccnc1)NCCCCC1CCN(C(=O)c2ccccc2)CC1 + Cc1cc(SCc2sc(-c3ccc(C(F)(F)F)c(F)c3)nc2C)ccc1OCC(=O)O [GW0742] (first compound 0.01 µM, partner dose 2 µM) | 67.8 | 46 | 66.1 | 77 | 4110 | 108 | 152 | 314
Cn1sc(=O)n(Cc2ccccc2)c1=O + O=C(Oc1ccc([N+](=O)[O-])cc1)N1CCC(C(O)(c2ccc3c(c2)OCO3)c2ccc3c(c2)OCO3)CC1 [JZL184] (first compound 0.4 µM, partner dose 1 µM) | 78 | 38.5 | 13.5 | 23.4 | 80.7 | 88.6 | 74.8 | 88.6
Cn1cc(C2=C(c3cn(C4CCN(Cc5ccccn5)CC4)c4ccccc34)C(=O)NC2=O)c2ccccc21 [Enzastaurin] + O=C(Nc1ccccc1)c1cc([N+](=O)[O-])ccc1Cl [GW9662] (first compound 0.8 µM, partner dose 2 µM) | 67.5 | 35.6 | 126 | 87.1 | 128 | 118 | 39.4 | 82.7
N.N.[Cl][Pt][Cl] [cisplatin] + COC(=O)c1sccc1S(=O)(=O)Nc1ccc(Nc2ccccc2)cc1OC [GSK0660] (first compound 1.6 µM, partner dose 1 µM) | 56.6 | 45.7 | 133 | 68.4 | 201 | 74.3 | 169 | 125
CCCS(=O)(=O)Nc1ccc(F)c(C(=O)c2c[nH]c3ncc(Cl)cc23)c1F + C/C(O)=C(\C#N)C(=O)Nc1cc(Br)ccc1Br [LFM-A13] (first compound 0.08 µM, partner dose 2 µM) | 67.5 | 34.5 | 47.6 | 45.3 | 33 | 241 | 56.1 | 79.5
C[C@]12O[C@H](C[C@]1(O)CO)n1c3ccccc3c3c4c(c5c6ccccc6n2c5c31)CNC4=O [Lestaurtinib] + COc1ccc2c(c1)CCC1C2CCC2(C)C(NCCCCCCN3C(=O)C=CC3=O)CCC12 [U73122] (first compound 0.004 µM, partner dose 0.4 µM) | 208 | 50.9 | 94.8 | 89 | 98.4 | 97.5 | 164 | 109
O=C(O)[C@@H]1[O][Sb](=[O])([O][Sb]2(=[O])[O][C@H]([C@H](O)CO)[C@H](O)[C@H](C(=O)O)[O]2)[O][C@H]([C@H](O)CO)[C@@H]1O (some centres not stated) [stibogluconate] + O=C(Oc1ccc([N+](=O)[O-])cc1)N1CCC(C(O)(c2ccc3c(c2)OCO3)c2ccc3c(c2)OCO3)CC1 [JZL184] (first compound 2 µM, partner dose 1 µM) | 206 | 30.4 | 91.9 | 91.3 | 102 | 87.3 | 27.1 | 83.7
COc1ccc(C2=N[C@@H](c3ccc(Cl)cc3)[C@@H](c3ccc(Cl)cc3)N2C(=O)N2CCNC(=O)C2)c(OC(C)C)c1 [Nutlin-3] + C/C(O)=C(\C#N)C(=O)Nc1cc(Br)ccc1Br [LFM-A13] (first compound 0.1 µM, partner dose 2 µM) | 69.5 | 18.1 | 88.3 | 20.7 | 167 | 101 | 64.6 | 92.1
N.N.[Cl][Pt][Cl] [cisplatin] + Oc1nc(-c2ccc(C(F)(F)F)cc2)nc2c1CSCC2 [XAV939] (first compound 1.6 µM, partner dose 2 µM) | 64.8 | 37.2 | 49 | 42.3 | 167 | 127 | 104 | 114

Reprinted at random: two records from the list, in no set order.
SMILES | cleaved PARP positive nuclei fraction [1] [%] | cleaved PARP positive nuclei fraction [2] [%] | cleaved PARP positive nuclei fraction [3] [%] | cleaved PARP positive nuclei fraction [4] [%] | cleaved PARP positive nuclei fraction [5] [%] | cleaved PARP positive nuclei fraction [6] [%] | cleaved PARP positive nuclei fraction [7] [%] | cleaved PARP positive nuclei fraction [8] [%]
N.N.[Cl][Pt][Cl] [cisplatin] + c1cc(-c2cnn3cc(-c4ccc(OCCN5CCCCC5)cc4)cnc23)ccn1 [Dorsomorphin] (first compound 1.6 µM, partner dose 0.4 µM) | 42.9 | 22.4 | 77.2 | 161 | 38.3 | 112 | 79.2 | 115
N.N.[Cl][Pt][Cl] [cisplatin] + COC(=O)c1sccc1S(=O)(=O)Nc1ccc(Nc2ccccc2)cc1OC [GSK0660] (first compound 1.6 µM, partner dose 1 µM) | 56.6 | 45.7 | 133 | 68.4 | 201 | 74.3 | 169 | 125
